Publication PMC11396517 (Molecules, 2024)

Assay: general procedure: Fmoc solid-phase peptide synthesis; 2-Chlorotrityl chloride resin; DIPCDI/HOBt
Conditions: whole synthesis

## HBED-CC-(D-Glu-L-Glu)7
  isolated yield: 1%
